Assay results as given in US8461328B2, “Tricyclic heterocyclic compounds, compositions and methods of use thereof” (Genentech, Inc., priority 2010, dated 2013).
Some entries share one result that the patent states for a list of compounds. One block for each molecule: values may come before it.

Chains of the proteins cited; added tags and fusions are not shown. Residues count along the entry.
UniProt P23458, 852-1154: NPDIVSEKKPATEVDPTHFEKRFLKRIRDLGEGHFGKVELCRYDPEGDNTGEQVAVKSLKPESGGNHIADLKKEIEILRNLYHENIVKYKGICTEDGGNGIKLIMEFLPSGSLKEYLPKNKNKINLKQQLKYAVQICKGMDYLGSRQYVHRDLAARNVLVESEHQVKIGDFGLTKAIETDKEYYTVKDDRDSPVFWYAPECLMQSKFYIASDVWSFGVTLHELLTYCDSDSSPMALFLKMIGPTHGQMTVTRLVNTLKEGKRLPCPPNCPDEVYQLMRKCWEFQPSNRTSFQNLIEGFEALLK

Target: T1, human JAK1 kinase domain (Homo sapiens, UniProt P23458)
T1 construct: made in house; host or cells: SF9 insect cells (baculovirus)
Assay: JAK1 inhibition assay (Example B), Caliper LabChip peptide phosphorylation
Assay type: biochemical
Details: 1.5 nM JAK1, 25 μM ATP, Morrison tight binding model; read-out: Ki in a JAK1 kinase activity assay (Example B)

Ki: < 0.5 µM
SMILES: c1cc2c(ncc3nc(C4CCCN4)n(C4CCCOC4)c32)[nH]1 (single isomer, unassigned) [Example 668]

Ki: < 0.5 µM
SMILES: C[C@@H](N)c1nc2cnc3[nH]ccc3c2n1C1CCCOC1 (single isomer, unassigned) [Example 669, 1-[1-(Tetrahydro-pyran-3-yl)-1,6-dihydro-1,2,3,5,6-tetraaza-as-indacen-2-yl]-ethylamine]

Ki: < 0.5 µM
SMILES: CCOC(=O)NCCc1nc2cnc3[nH]ccc3c2n1C1CCN(CC)CC1(F)F (single isomer, unassigned) [Example 679, {2-[1-(1-Ethyl-3,3-difluoro-piperidin-4-yl)-1,6-dihydro-1,2,3,5,6-tetraaza-as-indacen-2-yl]-ethyl}-carbamic acid ethyl ester]

Ki: < 0.5 µM
SMILES: CCOC(=O)NCCc1nc2cnc3[nH]ccc3c2n1C1CCN(CC)CC1(F)F (single isomer, unassigned) [Example 680, {2-[1-(1-Ethyl-3,3-difluoro-piperidin-4-yl)-1,6-dihydro-1,2,3,5,6-tetraaza-as-indacen-2-yl]-ethyl}-carbamic acid ethyl ester]

Ki: < 0.5 µM
SMILES: CCN1CCC(n2c(CCNS(C)(=O)=O)nc3cnc4[nH]ccc4c32)C(F)(F)C1 (single isomer, unassigned) [Example 805, N-{2-[1-(1-Ethyl-3,3-difluoro-piperidin-4-yl)-1,6-dihydro-1,3,5,6-tetraaza-as-indacen-2-yl]-ethyl}-methanesulfonamide]

Ki: < 0.5 µM
SMILES: CCN1CCC(n2c(CCNS(C)(=O)=O)nc3cnc4[nH]ccc4c32)C(F)(F)C1 (single isomer, unassigned) [Example 806, N-{2-[1-(1-Ethyl-3,3-difluoro-piperidin-4-yl)-1,6-dihydro-1,3,5,6-tetraaza-as-indacen-2-yl]-ethyl}-methanesulfonamide]

Ki: < 0.5 µM
SMILES: CC(O)c1nc2cnc3[nH]ccc3c2n1C1CC2CCC1O2 (single isomer, unassigned) [Example 846, endo-1-[1-(7-Oxa-bicyclo[2.2.1]hept-2-yl)-1,6-dihydro-1,3,5,6-tetraaza-as-indacen-2-yl]-ethanol]

Ki: < 0.5 µM
SMILES: CC(O)c1nc2cnc3[nH]ccc3c2n1C1CC2CCC1O2 (single isomer, unassigned) [Example 847, endo-1-[1-(7-Oxa-bicyclo[2.2.1]hept-2-yl)-1,6-dihydro-1,3,5,6-tetraaza-as-indacen-2-yl]-ethanol]

Ki: < 0.5 µM
SMILES: CS(=O)(=O)NCc1nc2cnc3[nH]ccc3c2n1C1CC2CCC1O2 (single isomer, unassigned) [Example 849, endo-N-[1-(7-Oxa-bicyclo[2.2.1]hept-2-yl)-1,6-dihydro-1,3,5,6-tetraaza-as-indacen-2-ylmethyl]-methanesulfonamide]

Ki: < 0.5 µM
SMILES: CS(=O)(=O)NCc1nc2cnc3[nH]ccc3c2n1C1CC2CCC1O2 (single isomer, unassigned) [Example 850, endo-N-[1-(7-Oxa-bicyclo[2.2.1]hept-2-yl)-1,6-dihydro-1,3,5,6-tetraaza-as-indacen-2-ylmethyl]-methanesulfonamide]

Ki: < 0.5 µM
SMILES: OCc1nc2cnc3[nH]ccc3c2n1C1CC2CCC1O2 (single isomer, unassigned) [Example 851, endo-[1-(7-Oxa-bicyclo[2.2.1]hept-2-yl)-1,6-dihydro-1,3,5,6-tetraaza-as-indacen-2-yl]-methanol]

Ki: < 0.5 µM
SMILES: OCc1nc2cnc3[nH]ccc3c2n1C1CC2CCC1O2 (single isomer, unassigned) [Example 852, endo-[1-(7-Oxa-bicyclo[2.2.1]hept-2-yl)-1,6-dihydro-1,3,5,6-tetraaza-as-indacen-2-yl]-methanol]

Ki: < 0.5 µM
SMILES: CCN1CCC(n2c([C@@H](C)O)nc3cnc4[nH]ccc4c32)C(F)(F)C1 (single isomer, unassigned) [Example 879]

Ki: < 0.5 µM
SMILES: CCN1CCC(n2c([C@@H](C)O)nc3cnc4[nH]ccc4c32)C(F)(F)C1 (single isomer, unassigned) [Example 880]

Ki: < 0.5 µM
SMILES: CC(O)c1nc2cnc3[nH]ccc3c2n1C1CC2CCC1O2 (single isomer, unassigned) [Example 905, (o)-1-[1-(7-Oxa-bicyclo[2.2.1]hept-2-yl)-1,6-dihydro-1,3,5,6-tetraaza-as-indacen-2-yl]-ethanol]

Ki: < 0.5 µM
SMILES: CC(O)c1nc2cnc3[nH]ccc3c2n1C1CC2CCC1O2 (single isomer, unassigned) [Example 907, (o)-1-[1-(7-Oxa-bicyclo[2.2.1]hept-2-yl)-1,6-dihydro-1,3,5,6-tetraaza-as-indacen-2-yl]-ethanol]

Ki: < 0.5 µM
SMILES: CC(O)c1nc2cnc3[nH]ccc3c2n1C1CC2CCC1O2 (single isomer, unassigned) [Example 936, (endo)-1-[1-(7-Oxa-bicyclo[2.2.1]hept-2-yl)-1,6-dihydro-1,3,5,6-tetraaza-as-indacen-2-yl]-ethanol]

Ki: < 0.5 µM
SMILES: CC(O)c1nc2cnc3[nH]ccc3c2n1C1CC2CCC1O2 (single isomer, unassigned) [Example 937, Endo-1-[1-(7-Oxa-bicyclo[2.2.1]hept-2-yl)-1,6-dihydro-1,3,5,6-tetraaza-as-indacen-2-yl]-ethanol]

Ki: < 0.5 µM
SMILES: C[C@@H](O)c1nc2cnc3[nH]ccc3c2n1C1CCNCC1(F)F (single isomer, unassigned) [Example 939]

More lines, now with the values behind:

SMILES: c1cc2c(ncc3nc(C4CCCN4)n(C4CCCOC4)c32)[nH]1 (single isomer, unassigned) [Example 665]
Ki: < 0.5 µM

SMILES: c1cc2c(ncc3nc(C4CCCN4)n(C4CCCOC4)c32)[nH]1 (single isomer, unassigned) [Example 666]
Ki: < 0.5 µM

SMILES: c1cc2c(ncc3ncn([C@@H]4CCCNC4)c32)[nH]1 [Example 2, (R)-1-Piperidin-3-yl-1,6-dihydro-1,2,3,5,6-tetraaza-as-indacene]
Ki: < 0.5 µM

SMILES: CC(C)(C)OC(=O)N1CC(n2cnc3cnc4[nH]ccc4c32)C1 [Example 3, 3-(6H-1,2,3,5,6-Tetraaza-as-indacen-1-yl)-azetidine-1-carboxylic acid tert-butyl ester]
Ki: < 0.5 µM

SMILES: c1cc(N2CCC[C@@H](n3cnc4cnc5[nH]ccc5c43)C2)ccn1 [Example 13, (R)-1-(3,4,5,6-Tetrahydro-2H-[1,4]bipyridinyl-3-yl)-1,6-dihydro-1,2,3,5,6-tetraaza-as-indacene]
Ki: < 0.5 µM

SMILES: OCCc1nc2cnc3[nH]ccc3c2n1[C@@H]1CCCN(Cc2ccccc2)C1 [Example 15, 2-[1-((R)-1-Benzyl-piperidin-3-yl)-1,6-dihydro-1,2,3,5,6-tetraaza-as-indacen-2-yl]ethanol]
Ki: < 0.5 µM

SMILES: OCCc1nc2cnc3[nH]ccc3c2n1[C@@H]1CCCNC1 [Example 16, 2-((R)-1-Piperidin-3-yl-1,6-dihydro-1,2,3,5,6-tetraaza-as-indacen-2-yl)ethanol]
Ki: < 0.5 µM

SMILES: O=C1CCCN1Cc1nc2cnc3[nH]ccc3c2n1C1CCN(Cc2ccccc2)CC1 [Example 24, 1-[1-(1-Benzyl-piperidin-4-yl)-1,6-dihydro-1,2,3,5,6-tetraaza-as-indacen-2-ylmethyl]-pyrrolidin-2-one]
Ki: < 0.5 µM

SMILES: c1cc2c(ncc3ncn([C@@H]4CCNC4)c32)[nH]1 [Example 29, (R)-1-Pyrrolidin-3-yl-1,6-dihydro-1,3,5,6-tetraaza-as-indacene]
Ki: < 0.1 µM

SMILES: c1cncc(CN2CCC[C@@H](n3cnc4cnc5[nH]ccc5c43)C2)c1 [Example 39, 1-((R)-1-Pyridin-3-ylmethyl-piperidin-3-yl)-1,6-dihydro-1,3,5,6-tetraaza-as-indacene]
Ki: < 0.5 µM

SMILES: N#Cc1ccc(S(=O)(=O)N2CCC(n3cnc4cnc5[nH]ccc5c43)CC2)cc1 [Example 56, 4-[4-(6H-1,3,5,6-Tetraaza-as-indacen-1-yl)-piperidine-1-sulfonyl]benzonitrile]
Ki: < 0.5 µM

SMILES: c1ccc(CN2CCC(n3nnc4cnc5[nH]ccc5c43)CC2)cc1 [Example 66, 1-(1-Benzyl-piperidin-4-yl)-1,6-dihydro-1,2,3,5,6-pentaaza-as-indacene]
Ki: < 0.5 µM

SMILES: Cc1nc2cnc3[nH]ccc3c2n1C1CCC(F)(F)CC1 [Example 114, 1-(4,4-Difluoro-cyclohexyl)-2-methyl-1,6-dihydro-1,2,3,5,6-tetraaza-as-indacene]
Ki: < 0.5 µM

SMILES: CS(=O)(=O)N1CCC(n2c(CC3CCCC3)nc3cnc4[nH]ccc4c32)CC1 [Example 115, 2-Cyclopentylmethyl-1-(1-methanesulfonyl-piperidin-4-yl)-1,6-dihydro-1,2,3,5,6-tetraaza-as-indacene]
Ki: < 0.5 µM

SMILES: N#CCCN1CCC(n2c(CC3CCCC3)nc3cnc4[nH]ccc4c32)CC1 [Example 116, 3-[4-(2-Cyclopentylmethyl-6H-1,2,3,5,6-tetraaza-as-indacen-1-yl)-piperidin-1-yl]-propionitrile]
Ki: < 0.5 µM

SMILES: CCCS(=O)(=O)N1CCC(n2c(CC(N)=O)nc3cnc4[nH]ccc4c32)CC1 [Example 117, 2-{1-[1-(Propane-1-sulfonyl)-piperidin-4-yl]-1,6-dihydro-1,2,3,5,6-tetraaza-as-indacen-2-yl}-acetamide]
Ki: < 0.5 µM

SMILES: CS(=O)(=O)NCCc1nc2cnc3[nH]ccc3c2n1C1CCN(CCC#N)CC1 [Example 118, N-(2-{1-[1-(2-Cyano-ethyl)-piperidin-4-yl]-1,6-dihydro-1,2,3,5,6-tetraaza-as-indacen-2-yl}-ethyl)-methanesulfonamide]
Ki: < 0.5 µM

SMILES: COCC(=O)N1CCC(n2c(Cc3conc3C)nc3cnc4[nH]ccc4c32)CC1 [Example 119, 2-Methoxy-1-{4-[2-(3-methyl-isoxazol-4-ylmethyl)-6H-1,2,3,5,6-tetraaza-as-indacen-1-yl]-piperidin-1-yl}-ethanone]
Ki: < 0.5 µM

SMILES: CCCc1nc2cnc3[nH]ccc3c2n1C1CCN(CCC#N)CC1 [Example 120, 3-[4-(2-Propyl-6H-1,2,3,5,6-tetraaza-as-indacen-1-yl)-piperidin-1-yl]-propionitrile]
Ki: < 0.5 µM

SMILES: CCc1nc2cnc3[nH]ccc3c2n1C1CCN(C(C)CC#N)CC1 (stereo not drawn) [Example 123, 3-[4-(2-Ethyl-6H-1,2,3,5,6-tetraaza-as-indacen-1-yl)-piperidin-1-yl]-butyronitrile]
Ki: < 0.5 µM
